Publication PMC11633972
These are yes or no findings as the source states them, for the method shown. In cells and extracts the contact can be indirect. A yes stands for co-enrichment or nearness to the bait. Other partners may have been found.

By UniProt entry, the sequences of proteins in these tests, tags left out.
UniProt P69596: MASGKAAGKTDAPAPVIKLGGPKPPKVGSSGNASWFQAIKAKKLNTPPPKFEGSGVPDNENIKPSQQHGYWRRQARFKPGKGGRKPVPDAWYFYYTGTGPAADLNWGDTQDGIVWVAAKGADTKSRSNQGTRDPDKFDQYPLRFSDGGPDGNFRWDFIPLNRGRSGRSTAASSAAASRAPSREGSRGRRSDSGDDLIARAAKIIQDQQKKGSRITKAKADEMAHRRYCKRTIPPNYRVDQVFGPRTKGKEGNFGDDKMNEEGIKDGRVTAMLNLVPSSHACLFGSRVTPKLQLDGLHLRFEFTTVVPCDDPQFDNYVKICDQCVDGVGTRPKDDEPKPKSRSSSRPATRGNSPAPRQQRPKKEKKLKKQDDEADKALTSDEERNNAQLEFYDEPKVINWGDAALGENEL
UniProt Q96SB4: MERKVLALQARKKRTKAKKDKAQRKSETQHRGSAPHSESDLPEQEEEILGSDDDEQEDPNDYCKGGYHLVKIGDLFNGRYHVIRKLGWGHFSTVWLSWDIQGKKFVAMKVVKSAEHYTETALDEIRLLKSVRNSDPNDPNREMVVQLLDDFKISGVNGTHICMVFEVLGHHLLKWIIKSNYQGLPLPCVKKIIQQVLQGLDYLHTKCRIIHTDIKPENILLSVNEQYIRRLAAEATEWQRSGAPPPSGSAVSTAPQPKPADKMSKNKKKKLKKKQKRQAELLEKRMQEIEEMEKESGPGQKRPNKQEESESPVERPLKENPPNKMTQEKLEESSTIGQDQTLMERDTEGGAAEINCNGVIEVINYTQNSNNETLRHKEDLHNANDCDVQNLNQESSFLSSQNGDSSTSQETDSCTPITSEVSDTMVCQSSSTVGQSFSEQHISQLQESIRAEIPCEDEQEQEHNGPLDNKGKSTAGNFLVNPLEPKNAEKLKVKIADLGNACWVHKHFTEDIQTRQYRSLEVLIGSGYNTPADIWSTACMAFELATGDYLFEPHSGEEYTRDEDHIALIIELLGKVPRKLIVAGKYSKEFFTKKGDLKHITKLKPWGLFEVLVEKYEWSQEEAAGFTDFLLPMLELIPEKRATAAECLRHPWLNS
UniProt Q14739: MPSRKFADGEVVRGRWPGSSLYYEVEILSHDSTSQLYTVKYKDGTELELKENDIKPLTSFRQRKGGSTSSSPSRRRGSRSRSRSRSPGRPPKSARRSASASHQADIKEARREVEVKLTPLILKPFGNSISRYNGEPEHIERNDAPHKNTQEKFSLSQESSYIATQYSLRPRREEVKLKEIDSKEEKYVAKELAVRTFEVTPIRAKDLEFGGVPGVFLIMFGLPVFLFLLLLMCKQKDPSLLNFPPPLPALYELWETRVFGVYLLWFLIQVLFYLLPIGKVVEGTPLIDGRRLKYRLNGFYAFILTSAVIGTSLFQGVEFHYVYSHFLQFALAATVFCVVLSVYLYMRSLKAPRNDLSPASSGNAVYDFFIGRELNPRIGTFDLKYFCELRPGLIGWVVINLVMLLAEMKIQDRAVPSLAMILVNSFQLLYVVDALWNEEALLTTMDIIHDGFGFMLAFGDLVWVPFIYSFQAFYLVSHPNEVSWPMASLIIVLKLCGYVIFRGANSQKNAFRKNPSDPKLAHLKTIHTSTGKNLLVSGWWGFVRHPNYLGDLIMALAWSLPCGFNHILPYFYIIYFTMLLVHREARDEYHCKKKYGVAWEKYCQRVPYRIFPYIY
UniProt P20700: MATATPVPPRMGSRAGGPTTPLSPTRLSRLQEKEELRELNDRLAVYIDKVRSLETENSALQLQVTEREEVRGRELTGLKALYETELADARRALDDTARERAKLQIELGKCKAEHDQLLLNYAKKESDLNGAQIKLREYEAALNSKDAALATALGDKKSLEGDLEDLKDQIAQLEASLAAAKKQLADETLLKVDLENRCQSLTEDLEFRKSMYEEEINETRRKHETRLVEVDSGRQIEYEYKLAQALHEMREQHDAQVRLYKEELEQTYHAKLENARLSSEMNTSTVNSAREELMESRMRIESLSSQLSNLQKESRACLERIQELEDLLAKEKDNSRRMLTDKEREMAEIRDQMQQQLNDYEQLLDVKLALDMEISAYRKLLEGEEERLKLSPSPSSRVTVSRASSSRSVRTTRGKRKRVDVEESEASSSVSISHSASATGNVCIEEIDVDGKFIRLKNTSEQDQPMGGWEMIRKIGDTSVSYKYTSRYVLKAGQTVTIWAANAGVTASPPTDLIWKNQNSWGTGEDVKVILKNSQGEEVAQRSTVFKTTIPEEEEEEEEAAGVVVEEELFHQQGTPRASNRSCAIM

What follows are substances tested against Flag-tagged IBV N protein (expressed in HEK-293T cells) (infectious bronchitis virus (IBV), Beaudette strain) (UniProt P69596) (assay: affinity purification with mass spectrometry).
“SRPK1 (SRSF protein kinase 1) (from UniProt Q96SB4 1-655) (enzyme)” was tested, and the binding was “binds”. With “LBR (Lamin B receptor) (from UniProt Q14739 1-615)” the binding was “binds”. In the case of “LMNB1 (Lamin B1) (from UniProt P20700 1-586)”, the binding is reported as “binds”.
